Results as given in publication PMC3400561.
These are yes or no findings as the source states them, for the method shown. In cells and extracts the contact can be indirect. Sequences can lack the tags named with a protein.

By UniProt entry, the sequences of proteins in these tests, tags left out.
UniProt Q03164: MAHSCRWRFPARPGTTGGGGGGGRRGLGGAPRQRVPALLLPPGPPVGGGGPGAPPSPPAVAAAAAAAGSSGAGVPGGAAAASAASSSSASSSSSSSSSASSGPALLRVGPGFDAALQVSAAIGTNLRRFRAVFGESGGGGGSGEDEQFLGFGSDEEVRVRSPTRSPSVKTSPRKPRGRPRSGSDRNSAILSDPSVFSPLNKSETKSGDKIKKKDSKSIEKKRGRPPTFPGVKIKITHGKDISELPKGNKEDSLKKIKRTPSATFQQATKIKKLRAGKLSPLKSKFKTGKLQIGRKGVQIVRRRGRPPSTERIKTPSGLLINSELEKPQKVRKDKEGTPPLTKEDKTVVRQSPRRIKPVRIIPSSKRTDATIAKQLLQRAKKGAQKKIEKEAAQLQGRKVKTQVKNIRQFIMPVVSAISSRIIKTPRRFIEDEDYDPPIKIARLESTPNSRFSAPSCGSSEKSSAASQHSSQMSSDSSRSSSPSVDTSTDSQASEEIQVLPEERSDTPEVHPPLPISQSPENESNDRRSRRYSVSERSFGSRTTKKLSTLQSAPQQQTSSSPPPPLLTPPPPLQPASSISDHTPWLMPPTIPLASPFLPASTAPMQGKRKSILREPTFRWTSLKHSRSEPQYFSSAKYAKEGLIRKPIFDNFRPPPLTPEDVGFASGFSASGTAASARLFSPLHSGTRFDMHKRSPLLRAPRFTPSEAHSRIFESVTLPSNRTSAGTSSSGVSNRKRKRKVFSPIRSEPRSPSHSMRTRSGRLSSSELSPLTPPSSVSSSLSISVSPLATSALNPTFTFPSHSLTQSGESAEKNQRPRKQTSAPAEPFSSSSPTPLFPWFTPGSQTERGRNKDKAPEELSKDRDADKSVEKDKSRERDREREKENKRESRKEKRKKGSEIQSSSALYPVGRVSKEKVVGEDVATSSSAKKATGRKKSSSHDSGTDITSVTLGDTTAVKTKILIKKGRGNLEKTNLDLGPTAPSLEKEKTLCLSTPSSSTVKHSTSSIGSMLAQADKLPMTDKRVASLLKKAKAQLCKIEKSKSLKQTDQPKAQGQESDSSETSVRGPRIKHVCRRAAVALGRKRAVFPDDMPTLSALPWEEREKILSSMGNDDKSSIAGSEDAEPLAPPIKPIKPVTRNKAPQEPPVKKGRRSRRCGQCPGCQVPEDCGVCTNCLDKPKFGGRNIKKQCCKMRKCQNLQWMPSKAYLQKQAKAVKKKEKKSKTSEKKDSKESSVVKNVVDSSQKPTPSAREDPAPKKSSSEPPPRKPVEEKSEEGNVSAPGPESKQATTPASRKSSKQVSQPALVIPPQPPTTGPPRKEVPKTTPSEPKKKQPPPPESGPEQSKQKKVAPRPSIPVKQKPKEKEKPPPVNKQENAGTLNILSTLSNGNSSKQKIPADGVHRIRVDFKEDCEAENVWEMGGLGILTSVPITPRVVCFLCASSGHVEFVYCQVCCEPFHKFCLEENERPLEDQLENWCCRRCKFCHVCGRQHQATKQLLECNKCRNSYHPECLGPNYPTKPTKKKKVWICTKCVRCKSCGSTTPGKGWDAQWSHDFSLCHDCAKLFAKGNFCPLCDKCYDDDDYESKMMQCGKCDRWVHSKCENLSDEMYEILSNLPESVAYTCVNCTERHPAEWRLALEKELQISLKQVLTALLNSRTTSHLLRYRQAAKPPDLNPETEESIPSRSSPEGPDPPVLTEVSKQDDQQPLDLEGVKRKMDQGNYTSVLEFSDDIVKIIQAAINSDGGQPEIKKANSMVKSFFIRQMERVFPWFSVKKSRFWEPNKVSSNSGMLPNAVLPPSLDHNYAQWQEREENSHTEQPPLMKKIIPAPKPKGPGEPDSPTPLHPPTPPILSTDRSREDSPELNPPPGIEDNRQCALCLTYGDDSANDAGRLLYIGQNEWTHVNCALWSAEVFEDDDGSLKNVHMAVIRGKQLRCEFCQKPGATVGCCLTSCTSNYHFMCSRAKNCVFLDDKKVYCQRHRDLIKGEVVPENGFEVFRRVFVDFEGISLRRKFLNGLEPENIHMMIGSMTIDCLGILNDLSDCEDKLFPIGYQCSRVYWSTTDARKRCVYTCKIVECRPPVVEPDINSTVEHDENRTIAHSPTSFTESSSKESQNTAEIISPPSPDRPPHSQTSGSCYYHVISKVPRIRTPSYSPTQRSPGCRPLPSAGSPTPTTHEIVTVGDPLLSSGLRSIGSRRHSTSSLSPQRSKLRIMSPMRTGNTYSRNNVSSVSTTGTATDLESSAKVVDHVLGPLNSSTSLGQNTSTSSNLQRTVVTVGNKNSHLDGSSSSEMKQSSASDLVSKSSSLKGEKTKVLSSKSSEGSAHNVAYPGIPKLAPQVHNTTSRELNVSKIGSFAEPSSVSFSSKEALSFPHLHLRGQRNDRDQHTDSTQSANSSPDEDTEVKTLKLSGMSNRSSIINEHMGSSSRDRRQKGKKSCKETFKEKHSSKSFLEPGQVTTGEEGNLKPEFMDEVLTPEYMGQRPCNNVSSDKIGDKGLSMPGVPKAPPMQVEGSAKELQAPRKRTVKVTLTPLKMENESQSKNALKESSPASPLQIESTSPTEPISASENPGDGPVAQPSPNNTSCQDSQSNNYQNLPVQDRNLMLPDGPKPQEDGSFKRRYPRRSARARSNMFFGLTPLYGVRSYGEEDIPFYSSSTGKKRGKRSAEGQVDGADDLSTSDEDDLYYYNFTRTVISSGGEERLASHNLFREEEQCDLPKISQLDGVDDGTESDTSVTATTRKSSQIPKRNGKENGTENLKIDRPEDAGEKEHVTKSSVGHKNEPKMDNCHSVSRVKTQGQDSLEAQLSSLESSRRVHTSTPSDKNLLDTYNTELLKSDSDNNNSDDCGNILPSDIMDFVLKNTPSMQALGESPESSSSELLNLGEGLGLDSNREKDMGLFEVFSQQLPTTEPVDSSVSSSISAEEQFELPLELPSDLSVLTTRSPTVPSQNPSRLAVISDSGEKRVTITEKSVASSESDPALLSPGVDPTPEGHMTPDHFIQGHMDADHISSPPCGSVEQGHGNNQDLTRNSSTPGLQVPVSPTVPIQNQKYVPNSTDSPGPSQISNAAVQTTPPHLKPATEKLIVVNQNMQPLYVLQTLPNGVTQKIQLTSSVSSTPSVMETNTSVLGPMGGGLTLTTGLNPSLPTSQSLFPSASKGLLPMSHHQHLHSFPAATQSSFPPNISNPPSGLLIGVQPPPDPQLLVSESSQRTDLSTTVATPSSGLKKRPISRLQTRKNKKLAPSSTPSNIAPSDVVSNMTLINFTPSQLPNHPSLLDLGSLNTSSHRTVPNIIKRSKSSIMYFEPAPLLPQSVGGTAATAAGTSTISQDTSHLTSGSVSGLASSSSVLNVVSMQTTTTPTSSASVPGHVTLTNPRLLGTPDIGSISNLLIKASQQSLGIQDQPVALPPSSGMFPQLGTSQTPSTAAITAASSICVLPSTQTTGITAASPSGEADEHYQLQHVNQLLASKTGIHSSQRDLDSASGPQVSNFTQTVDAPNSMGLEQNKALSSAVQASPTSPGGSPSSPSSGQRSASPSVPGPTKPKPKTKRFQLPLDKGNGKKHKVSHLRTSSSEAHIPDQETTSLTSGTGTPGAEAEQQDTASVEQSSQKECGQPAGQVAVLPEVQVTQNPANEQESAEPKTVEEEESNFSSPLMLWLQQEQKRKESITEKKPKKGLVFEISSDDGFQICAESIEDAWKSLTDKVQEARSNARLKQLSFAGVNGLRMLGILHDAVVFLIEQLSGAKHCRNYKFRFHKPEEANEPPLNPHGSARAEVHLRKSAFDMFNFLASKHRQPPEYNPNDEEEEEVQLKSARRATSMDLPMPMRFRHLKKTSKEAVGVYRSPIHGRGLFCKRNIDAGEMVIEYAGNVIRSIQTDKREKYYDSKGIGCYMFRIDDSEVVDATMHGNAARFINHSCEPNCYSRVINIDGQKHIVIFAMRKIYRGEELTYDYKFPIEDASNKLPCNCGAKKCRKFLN
UniProt O15047: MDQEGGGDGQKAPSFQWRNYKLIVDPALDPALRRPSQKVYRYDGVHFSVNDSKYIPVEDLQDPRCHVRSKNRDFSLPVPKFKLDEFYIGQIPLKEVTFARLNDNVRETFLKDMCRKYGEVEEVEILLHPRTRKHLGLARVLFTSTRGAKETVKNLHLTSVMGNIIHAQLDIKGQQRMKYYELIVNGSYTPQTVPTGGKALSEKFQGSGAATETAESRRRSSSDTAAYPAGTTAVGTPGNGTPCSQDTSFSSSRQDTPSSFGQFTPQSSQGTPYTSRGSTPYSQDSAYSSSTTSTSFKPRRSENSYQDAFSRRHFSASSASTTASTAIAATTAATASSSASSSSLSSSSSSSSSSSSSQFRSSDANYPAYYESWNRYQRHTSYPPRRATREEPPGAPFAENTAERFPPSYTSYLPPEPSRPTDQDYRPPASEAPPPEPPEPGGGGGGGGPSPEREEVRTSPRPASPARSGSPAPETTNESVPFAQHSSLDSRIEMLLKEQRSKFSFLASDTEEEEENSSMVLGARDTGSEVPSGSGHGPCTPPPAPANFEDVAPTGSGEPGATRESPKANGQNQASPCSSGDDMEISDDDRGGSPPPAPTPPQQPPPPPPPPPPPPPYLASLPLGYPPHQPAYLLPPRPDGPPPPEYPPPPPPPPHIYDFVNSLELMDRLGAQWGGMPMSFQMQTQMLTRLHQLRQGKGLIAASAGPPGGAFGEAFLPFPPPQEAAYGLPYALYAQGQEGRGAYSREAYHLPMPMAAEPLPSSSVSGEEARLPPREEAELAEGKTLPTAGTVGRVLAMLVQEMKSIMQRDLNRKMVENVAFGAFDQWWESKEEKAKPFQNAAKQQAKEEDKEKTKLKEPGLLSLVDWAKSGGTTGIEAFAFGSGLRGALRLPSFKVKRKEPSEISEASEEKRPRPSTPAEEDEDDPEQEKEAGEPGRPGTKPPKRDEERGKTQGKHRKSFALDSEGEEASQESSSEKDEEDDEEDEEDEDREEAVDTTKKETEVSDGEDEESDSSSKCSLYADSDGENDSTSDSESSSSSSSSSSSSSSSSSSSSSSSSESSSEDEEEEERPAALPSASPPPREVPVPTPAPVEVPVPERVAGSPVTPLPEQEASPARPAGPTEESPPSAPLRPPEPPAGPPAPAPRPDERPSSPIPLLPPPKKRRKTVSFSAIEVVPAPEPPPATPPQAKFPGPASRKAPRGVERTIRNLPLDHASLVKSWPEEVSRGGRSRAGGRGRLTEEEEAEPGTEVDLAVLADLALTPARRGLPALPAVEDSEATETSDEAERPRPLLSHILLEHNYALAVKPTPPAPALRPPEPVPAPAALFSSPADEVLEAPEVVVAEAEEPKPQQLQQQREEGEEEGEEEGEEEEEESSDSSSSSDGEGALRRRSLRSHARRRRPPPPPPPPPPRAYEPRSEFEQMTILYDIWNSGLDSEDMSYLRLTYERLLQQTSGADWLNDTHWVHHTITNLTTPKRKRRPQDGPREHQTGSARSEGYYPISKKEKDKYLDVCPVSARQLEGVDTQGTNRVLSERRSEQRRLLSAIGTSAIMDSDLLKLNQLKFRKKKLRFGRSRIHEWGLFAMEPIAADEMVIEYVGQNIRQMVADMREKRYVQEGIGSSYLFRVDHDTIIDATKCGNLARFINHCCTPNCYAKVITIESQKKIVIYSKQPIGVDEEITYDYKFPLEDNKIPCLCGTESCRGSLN

Target: T1, HA-GRHL3 (UniProt Q8TE85)
T1 sequence: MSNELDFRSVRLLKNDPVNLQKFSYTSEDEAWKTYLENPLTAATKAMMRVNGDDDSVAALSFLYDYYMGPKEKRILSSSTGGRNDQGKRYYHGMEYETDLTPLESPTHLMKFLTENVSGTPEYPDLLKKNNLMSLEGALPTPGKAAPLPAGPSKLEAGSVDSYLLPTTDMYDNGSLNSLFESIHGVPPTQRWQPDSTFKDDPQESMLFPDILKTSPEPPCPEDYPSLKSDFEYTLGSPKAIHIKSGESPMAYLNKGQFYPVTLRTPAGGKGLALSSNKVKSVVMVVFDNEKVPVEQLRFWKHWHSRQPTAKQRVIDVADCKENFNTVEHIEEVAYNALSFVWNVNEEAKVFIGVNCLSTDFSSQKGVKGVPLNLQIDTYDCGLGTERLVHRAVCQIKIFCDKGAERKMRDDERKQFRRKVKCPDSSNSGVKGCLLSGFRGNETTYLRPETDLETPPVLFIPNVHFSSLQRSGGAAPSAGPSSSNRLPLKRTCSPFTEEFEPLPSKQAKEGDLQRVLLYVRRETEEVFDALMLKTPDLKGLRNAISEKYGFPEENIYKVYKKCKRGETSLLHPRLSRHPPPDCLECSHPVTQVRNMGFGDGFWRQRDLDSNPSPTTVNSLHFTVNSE
Assay: co-IP; extracts of 293T cells 2 days after transfection with HA-GRHL3; 1% NP-40 lysis buffer; 5 ug antibody (MLL2, WDR5 or HA; IgG control) overnight at 4C, protein A Dynabeads, washed in PBS; Western blot

| Substance | binding |
| --- | --- |
| MLL1 (from UniProt Q03164 1-3969) (enzyme) | no binding |
| SETD1A (from UniProt O15047 1-1707) (enzyme) | no binding |
